Test results from PubChem BioAssay AID248 (DTP/NCI, 2004).
The list does not hold the whole screen: it is rich in T/C values a quarter to a half above the control, in often repeated tests (any T/C) and in doses without a T/C. Other doses and runs of a compound stand elsewhere. T/C: endpoint of the treated group in % of that of the vehicle group. Some entries give survivors of the animals treated and no T/C: the source holds a T/C of zero for them, seemingly a mark for toxic or unscored doses. Some doses without a T/C left all or most animals alive at the check, yet need not have been tolerated: the source hardly ever lists a survival T/C far under the control, and the zero likely stands for such cases as well. Survivors were counted at the toxicity check, usually on the fifth day, unless a day is given; later deaths do not show. Schedules are NCI's codes, taken here to give the interval after Q, in days (D) or hours (H), and the number of doses after X. Some schedules carry Z or #; the key to these is not given. Some structures stand for samples that the source files as different forms (salt, stereo form or complex); doses refer to the form tested. Some entries were tested several times; the values are given in rising order. Where survival is the endpoint, the PubChem record calls one and a half times the control and up active, and a quarter to a half above the control has no call in these data; cut-offs in other NCI protocols can differ. Some T/C values carry the count of animals alive at the toxicity check (mostly the fifth day); without a count, all were alive then.

Tested on: L1210 leukemia ip in BDF1 mice, survival T/C
Experiment: NCI In Vivo Anticancer Drug Screen. Data for tumor model L1210 Leukemia (intraperitoneal) in B6D2F1 (BDF1) mice
Settings: T/C endpoint: mean survival time, higher T/C = longer survival
[1] = dose: 15.0 mg/kg/injection, schedule: Q01DX Z (ip), vehicle: saline
[2] = dose: 100.0 mg/kg/injection, schedule: Q01DX001 (ip), vehicle: carboxymethylcellulose (CMC)
[3] = dose: 200.0 mg/kg/injection, schedule: Q01DX001 (ip), vehicle: carboxymethylcellulose (CMC)
[4] = dose: 400.0 mg/kg/injection, schedule: Q01DX001 (ip), vehicle: carboxymethylcellulose (CMC)
[5] = dose: 100.0 mg/kg/injection, schedule: Q04DX003 (ip), vehicle: Klucel (hydroxypropylcellulose) (HPC)
[6] = dose: 200.0 mg/kg/injection, schedule: Q04DX003 (ip), vehicle: Klucel (hydroxypropylcellulose) (HPC)
[7] = dose: 400.0 mg/kg/injection, schedule: Q04DX003 (ip), vehicle: Klucel (hydroxypropylcellulose) (HPC)
[8] = dose: 400.0 mg/kg/injection, schedule: Q04DX002 (ip), vehicle: Klucel (hydroxypropylcellulose) (HPC)
[9] = dose: 200.0 mg/kg/injection, schedule: Q04DX002 (ip), vehicle: Klucel (hydroxypropylcellulose) (HPC)
[10] = dose: 400.0 mg/kg/injection, schedule: Q01DX009 (ip), vehicle: saline
[11] = dose: 25.0 mg/kg/injection, schedule: Q04DX002 (ip), vehicle: Klucel (hydroxypropylcellulose) (HPC)
[12] = dose: 400.0 mg/kg/injection, schedule: Q04DX003 (ip), vehicle: saline
[13] = dose: 50.0 mg/kg/injection, schedule: Q04DX002 (ip), vehicle: Klucel (hydroxypropylcellulose) (HPC)
[14] = dose: 100.0 mg/kg/injection, schedule: Q04DX002 (ip), vehicle: Klucel (hydroxypropylcellulose) (HPC)

O=C(Nc1cccc(C2=NCCCN2)c1)c1ccc(C(=O)Nc2cccc(C3=NCCCN3)c2)cc1
survivor count (dose: 0.5 mg/kg/injection, schedule: Q01DX Z (ip), vehicle: saline): 0 of 6
survivor count (dose: 0.8 mg/kg/injection, schedule: Q01DX Z (ip), vehicle: saline): 1 of 6
survivor count (dose: 1.2 mg/kg/injection, schedule: Q01DX Z (ip), vehicle: saline): 0 of 6
survivor count (dose: 1.77 mg/kg/injection, schedule: Q01DX Z (ip), vehicle: saline): 0 of 6
survivor count (dose: 2.66 mg/kg/injection, schedule: Q01DX Z (ip), vehicle: saline): 0 of 6
survivor count (dose: 4.0 mg/kg/injection, schedule: Q01DX Z (ip), vehicle: saline): 0 of 6
survivor count (dose: 6.0 mg/kg/injection, schedule: Q01DX Z (ip), vehicle: saline): 0 of 6
survivor count (dose: 10.0 mg/kg/injection, schedule: Q01DX Z (ip), vehicle: saline): 0 of 6
survivor count [1]: 0 of 6
survivor count (dose: 22.0 mg/kg/injection, schedule: Q01DX Z (ip), vehicle: saline): 0 of 6

N#CC12CC3CC(CC(C3)C1)C2
survivor count [2]: 1 of 6
survivor count [3]: 0 of 6
survivor count [4]: 0 of 6

CN=C(c1ccc(NC(=O)c2ccc(C(=O)Nc3ccc(C(=NC)N(C)C)cc3)cc2)cc1)N(C)C
survivor count [1]: 0 of 6
survivor count (dose: 30.0 mg/kg/injection, schedule: Q01DX Z (ip), vehicle: saline): 0 of 6
survivor count (dose: 60.0 mg/kg/injection, schedule: Q01DX Z (ip), vehicle: saline): 0 of 6
survivor count (dose: 120.0 mg/kg/injection, schedule: Q01DX Z (ip), vehicle: saline): 0 of 6

CCC(=O)Nc1cccc(OC(=O)NC(C)C)c1
survivor count (dose: 400.0 mg/kg/injection, schedule: Q01DX009 (ip), vehicle: saline with Tween-80): 5 of 6

O=[N+]([O-])c1ccc2c(c1)-c1ccccc1C2Br (configuration not stated)
survivor count (dose: 200.0 mg/kg/injection, schedule: Q01DX005 (ip), vehicle: Klucel (hydroxypropylcellulose) (HPC)): 2 of 3

CCCCCCCCCCNCCC(=O)O
survivor count (dose: 150.0 mg/kg/injection, schedule: Q01DX009 (ip), vehicle: saline): 2 of 6 and 3 of 6
survivor count (dose: 200.0 mg/kg/injection, schedule: Q01DX001 (ip), vehicle: saline): 2 of 6
survivor count (dose: 225.0 mg/kg/injection, schedule: Q01DX009 (ip), vehicle: saline): 0 of 6
survivor count (dose: 300.0 mg/kg/injection, schedule: Q01DX001 (ip), vehicle: saline): 0 of 6
survivor count (dose: 335.0 mg/kg/injection, schedule: Q01DX009 (ip), vehicle: saline): 0 of 6
survivor count (dose: 400.0 mg/kg/injection, schedule: Q01DX001 (ip), vehicle: saline): 1 of 6

Nc1nc(=S)c2[nH]c(N=Nc3ccc(S(N)(=O)=O)cc3)nc2[nH]1
T/C [5]: 145 and 147 % of control
T/C [6]: 147 % of control
survivor count [7]: 3 of 6

CCCCP(=[Se])(CCCC)CCCC
survivor count (dose: 12.5 mg/kg/injection, schedule: Q01DX009 (ip), vehicle: Klucel (hydroxypropylcellulose) (HPC)): 0 of 6
survivor count (dose: 25.0 mg/kg/injection, schedule: Q01DX009 (ip), vehicle: Klucel (hydroxypropylcellulose) (HPC)): 0 of 6
survivor count [5]: 6 of 6
survivor count [6]: 2 of 6
survivor count [7]: 0 of 6

COCCOC
T/C (dose: 200.0 mg/kg/injection, schedule: Q01DX Z (ip), vehicle: saline): 133 and 142 % of control
T/C (dose: 300.0 mg/kg/injection, schedule: Q01DX Z (ip), vehicle: saline): 125 % of control
T/C (dose: 500.0 mg/kg/injection, schedule: Q01DX Z (ip), vehicle: saline): 139 % of control [5 of 6 alive]
T/C (dose: 1000.0 mg/kg/injection, schedule: Q01DX Z (ip), vehicle: saline): 126, 132 [5 of 6 alive], 133 % of control
survivor count (dose: 1500.0 mg/kg/injection, schedule: Q01DX Z (ip), vehicle: saline): 5 of 6
survivor count (dose: 2000.0 mg/kg/injection, schedule: Q01DX Z (ip), vehicle: saline): 6 of 6

NC(CSS(=O)(=O)O)=NCc1cccnc1
survivor count [8]: 0 of 3

Nc1nccnc1C(=O)NOCc1ccccc1
T/C [9]: 130 % of control

Nc1ccc2ncccc2c1
survivor count [10]: 0 of 6

O=C1OC2CCCCC2/C1=C/N1CCCCC1 (configuration not stated)
survivor count [11]: 3 of 3

CCOc1ccc2nc(N)sc2c1
survivor count [12]: 0 of 6

O=C(Nc1ccc(CC2=NCCCN2)cc1)c1ccc(C(=O)Nc2ccc(CC3=NCCCN3)cc2)cc1
survivor count (dose: 2.0 mg/kg/injection, schedule: Q01DX Z (ip), vehicle: water): 3 of 6

CNC(=O)Oc1ccc(SC)c(C)c1
survivor count (dose: 3.0 mg/kg/injection, schedule: Q01DX009 (ip), vehicle: Klucel (hydroxypropylcellulose) (HPC)): 0 of 3
survivor count (dose: 6.0 mg/kg/injection, schedule: Q01DX009 (ip), vehicle: Klucel (hydroxypropylcellulose) (HPC)): 0 of 3
survivor count (dose: 12.5 mg/kg/injection, schedule: Q04DX002 (ip), vehicle: Klucel (hydroxypropylcellulose) (HPC)): 1 of 3
survivor count (dose: 20.0 mg/kg/injection, schedule: Q01DX001 (ip), vehicle: carboxymethylcellulose (CMC)): 2 of 4
survivor count [11]: 0 of 3
survivor count (dose: 40.0 mg/kg/injection, schedule: Q01DX001 (ip), vehicle: carboxymethylcellulose (CMC)): 0 of 4
survivor count [13]: 0 of 3
survivor count (dose: 80.0 mg/kg/injection, schedule: Q01DX001 (ip), vehicle: carboxymethylcellulose (CMC)): 0 of 4
survivor count [2]: 1 of 4
survivor count [14]: 0 of 3
survivor count [3]: 0 of 4
survivor count [9]: 0 of 3
survivor count [4]: 0 of 4
survivor count [8]: 0 of 3

CCNC(C)C
survivor count (dose: 200.0 mg/kg/injection, schedule: Q04DX003 (ip), vehicle: saline): 2 of 6
survivor count [12]: 0 of 6

O=[N+]([O-])c1ccc(Cl)c(OCCCCOc2ccc(S(=O)(=O)F)cc2)c1
survivor count [7]: 6 of 6

COc1ccc2c(c1O)C13CCN(C)C(C2)C1CCC1(C3)OCCO1 (configuration not stated)
survivor count [10]: 0 of 6

NC(CSS(=O)(=O)O)=NCCCCc1ccccc1
survivor count [13]: 3 of 3
survivor count [14]: 1 of 3
survivor count [9]: 2 of 3
survivor count [8]: 0 of 3
